Test system: 5-HT3 receptors
Assay: Bezold-Jarisch effect (reduction of heart rate) in the anesthetized rat, intravenous administration
Assay type: in vivo, Sprague-Dawley rats
Settings: antagonist against the heart rate reduction by compounds of formula (I)

CC[C@@H](CO)NC(=O)[C@@H]1C=C2c3cccc4c3c(cn4C)C[C@H]2N(C)C1 [methysergide]
inhibition by antagonist of the Bezold-Jarisch effect evoked by compounds of formula (I): not inhibited
